Where a chain is given by its changes, count along the chain named. Results are given in words; binding and its absence hold for the method and conditions named. Some entries that bind do so weakly or less than the wild type.
B1: humanized anti-B7-H4 antibody hu2F8 (antibody, human IgG1, kappa, V domains shown)
VH: EVQLVQSGAEVKKPGASVKVSCKASGYTFTSSWMNWVRQAPGQRLEWMGGIYPNRGNIEYNEKFKGRVTLTVDTSASTAYMELSSLRSEDTAVYYCARDSRFSYWGQGTLVTVSS
VL: DIQMTQSPSSLSASVGDRVTITCKASQDVRTAVAWYQQKPGKAPKLLISSTSYRYTGVPSRFSGSGSGTDFTFTISSLQPEDIATYYCQQHYSTPLTFGGGTKVEIKR
notes: human IgG1 / kappa; also called humanized antibody 2F8
B2: humanized anti-B7-H4 antibody hu1C9 (antibody, human IgG1, kappa, V domains shown)
VH: B1 VH with Y27D, S31T, S32Y, P53L, N57S, I58S
VL: B1 VL with R30S, T51A, S93N
notes: human IgG1 / kappa; also called humanized antibody 1C9
B3: humanized anti-B7-H4 antibody hu2G6 (antibody, human IgG1, kappa, V domains shown)
VH: EVQLLESGGGLVQPGGSLRLSCAASGFTFSRYGMSWVRQAPGKGLEWVSGINGGGSYTYYLDTVKGRFTISRDNARNTLYLQMSSLRAEDTAVYYCVSQGSNYYFDYWGQGTLVTVSS
VL: DIRMTQSPSSLSASVGDRVTITCHASQGISSNIGWLQQKPGKAPKALIYHGTNLEDGVPSRFSGSGSGADYTLTISSLQPEDFATYYCVQYAQFPYTFGGGTKVEIKR
notes: human IgG1 / kappa; also called humanized antibody 2G6
B4: humanized anti-B7-H4 antibody hu2F7 (antibody, human IgG1, kappa, V domains shown)
VH: EVQLVESGGGLVQPGGSLRLSCAASGFTFSNYYMSWVRQAPGKGLEWVAYVSSGGGSTYYSDSVKGRFTISRDNAKNTLYLQMSSLRAEDTAVYYCTRESYSQGNYFDYWGQGTTVTVSS
VL: EIVMTQSPATLSLSPGERATLSCRASQSISDYLHWYQQKPGQSPRLLIKFASQSISGIPARFSGSGSGTDFTLTISSLEPEDFAVYYCQNGHSFSLTFGQGTKLEIKR
notes: human IgG1 / kappa; also called humanized antibody 2F7
B5: chimeric antibody 2A10 (antibody, human IgG1, V domains shown)
VH: EVQLVESGGGFVKPGGSLKLSCAASGFTFSTFGMSWVRQTPDKRLEWVAGISPGGSYTYYPDTVKGRFTISRDNARNTLYLQMSSLRSEDSAMYYCTRGRSVWGTGTTVTVSS
VL: DILMTQSPSSMSVSLGDTVSITCHASQDISSNIGWLQQKPGKSFKGLIYHGTTLEDGIPSRFSGSGSGADYSLTISSLESEDFADYYCVQSAQFPWTFGGGTKLEIK
B6: chimeric antibody 2F4 (antibody, human IgG1, V domains shown)
VH: EVQLVESGGGLVKPGGSLKLSCAASGLTFSRYAMSWVRQTPEKRLEWVAGISSGGSYTYYSDTVKGRFTISRDNVRNTLYLQMSSLRSEDTAMYYCGREYGRDYWGQGTSVTVSS
VL: B5 VL with D28G, S30N, T53N, I58V, A69T, S91Y, W96R, K103T
notes: also called ch-2F4
B7: chimeric antibody 2G6 (antibody, human IgG1, V domains shown)
VH: EVQLVESGGGLVKPGGSLKLSCAASGFTFSRYGMSWVRQTPEKRLEWVAGINGGGSYTYYLDTVKGRFTISRDNSRNTLYLQMSSLRSEDTAMYYCVSQGSNYYFDYWGQGTTLTVSS
VL: B5 VL with L3R, D28G, G46A, T53N, I58V, S91Y, W96Y
B8: chimeric antibody 2F8 (antibody, human IgG1, V domains shown)
VH: QVQLQQPGSVLVRPGASVKLSCKASGYTFTNSWMNWAKLRPGQGLEWIGGIYPNSGNIEYNEKFKGKATLTVDTSSSTAYMDLTSLTSEDSAVYYCARDSRFSYWGQGTLVTVSA
VL: DIVMTQSHKFMSTSVGDRVSITCKASQDVRTAVAWYQQKPGQSPKLLISSTSYRYTGVPDRFTGSGSGTDFTFIISSVQAEDLAVYYCQQHYSTPLTFGAGTKLELK
notes: also called ch-2F8
B9: chimeric antibody 1C9 (antibody, human IgG1, V domains shown)
VH: B8 VH with Y27D, N31T, S32Y, A37V, L39Q, P53L, N57S, I58S, T71S, T84S
VL: B8 VL with M11L, R30S, K45E, T51A, I74T, S93N, K103Q
B10: chimeric antibody 2F7 (antibody, human IgG1, V domains shown)
VH: B4 VH with R19K, A40T, G42E, G44R, R87K, A88P, V93M, V116L
VL: DIVMTQSPATLSVTPGDRVSLSCRASQSISDYLHWYQQKSHESPRLLIKFASQSISGIPSRFSGSGSGSDFTLSINSVEPEDVGVYYCQNGHSFSLTFGAGTKLELK
notes: also called ch-2F7

Protein sequences, listed by entry. Tags and fused reporters are not part of them. Lines headed by an entry give the natural chain unless they say otherwise; changes in a name come on top.
UniProt Q7Z7D3: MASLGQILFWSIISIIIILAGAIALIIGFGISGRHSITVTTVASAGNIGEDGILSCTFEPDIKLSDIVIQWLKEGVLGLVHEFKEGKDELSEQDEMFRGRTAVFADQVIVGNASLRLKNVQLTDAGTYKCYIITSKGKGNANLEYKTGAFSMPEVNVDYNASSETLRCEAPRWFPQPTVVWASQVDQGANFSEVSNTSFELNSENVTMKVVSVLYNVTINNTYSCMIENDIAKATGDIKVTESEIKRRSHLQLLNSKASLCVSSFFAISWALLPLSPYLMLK

What follows are binders tested against Human B7-H4 with HisFlag tag (huB7-H4-his) (human) (UniProt Q7Z7D3) (assay: SPR Biacore, as in Example 5).

binding, binds:
B1
B2
B3
B4

These binders were tested against Human B7-H4 with HisFlag tag (huB7-H4-his) (human) (UniProt Q7Z7D3) (assay: in vitro ELISA binding assay (FIG. 1)).

binding, binds:
B5
B6
B7
B8
B9
B10
